The values that follow come from PMC5107993, “Glutathione-conjugating and membrane-remodeling activity of GDAP1 relies on amphipathic C-terminal domain” (Scientific Reports, 2016).

These are yes or no findings as the source states them, for the method shown. In cells and extracts the contact can be indirect. Some results given as binding are weak or reduced against the parent protein; the word gives no strength. For some of these results: Where a sequence is shown, tags or fusion partners need not be part of it.

The target of experiment [1] is T1, human ganglioside-induced differentiation associated protein 1 (GDAP1), full-length, untagged (human) (UniProt Q8TB36).
T1 sequence: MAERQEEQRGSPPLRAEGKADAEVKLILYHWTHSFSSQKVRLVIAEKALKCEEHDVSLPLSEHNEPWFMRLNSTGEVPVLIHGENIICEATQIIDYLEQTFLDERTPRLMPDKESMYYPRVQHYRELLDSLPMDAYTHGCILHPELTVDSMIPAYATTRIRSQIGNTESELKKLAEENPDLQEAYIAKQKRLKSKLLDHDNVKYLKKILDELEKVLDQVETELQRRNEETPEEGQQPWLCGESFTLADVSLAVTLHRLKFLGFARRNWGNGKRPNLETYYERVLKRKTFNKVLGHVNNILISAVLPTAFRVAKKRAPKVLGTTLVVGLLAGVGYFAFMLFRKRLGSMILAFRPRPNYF
The experiment can be described thus: co-IP; human and mouse forms co-expressed in HEK-293T; IP with human-specific anti-GDAP1 serum on Protein A-Sepharose, 2 h; lysis buffer 50 mM Tris pH 7.5, 150 mM NaCl, 1 mM EDTA, 1% Triton X-100; immunoblot for the mouse form.

The target of experiment [2] is T2, human GDAP1 R120W (dominantly inherited disease mutant, dmGDAP1) (human) (UniProt Q8TB36).
T2 sequence: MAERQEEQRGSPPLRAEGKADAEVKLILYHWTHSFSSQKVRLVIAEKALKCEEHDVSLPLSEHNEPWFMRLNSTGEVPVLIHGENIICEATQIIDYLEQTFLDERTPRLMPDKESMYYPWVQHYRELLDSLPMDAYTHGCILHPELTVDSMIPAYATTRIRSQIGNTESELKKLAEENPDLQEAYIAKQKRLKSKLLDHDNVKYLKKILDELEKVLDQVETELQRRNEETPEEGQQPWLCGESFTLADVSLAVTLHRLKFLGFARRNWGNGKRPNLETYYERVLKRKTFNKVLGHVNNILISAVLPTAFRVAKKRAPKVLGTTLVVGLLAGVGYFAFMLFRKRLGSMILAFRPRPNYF
The description is as above.

Experiment [3] deals with T3, human GDAP1 R120Q (recessively inherited disease mutant, rmGDAP1) (human) (UniProt Q8TB36).
T3 sequence: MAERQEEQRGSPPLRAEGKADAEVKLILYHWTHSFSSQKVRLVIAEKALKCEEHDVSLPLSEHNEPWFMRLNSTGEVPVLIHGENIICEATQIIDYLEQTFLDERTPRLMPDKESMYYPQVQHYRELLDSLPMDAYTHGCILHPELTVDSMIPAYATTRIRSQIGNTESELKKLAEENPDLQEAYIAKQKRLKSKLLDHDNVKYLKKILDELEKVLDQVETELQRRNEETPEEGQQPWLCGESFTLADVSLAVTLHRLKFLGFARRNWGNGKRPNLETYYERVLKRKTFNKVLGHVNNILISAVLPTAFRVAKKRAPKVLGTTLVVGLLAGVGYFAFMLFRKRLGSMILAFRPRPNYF
The experiment is described as above.

For experiment [4], the target named is T4, human GDAP1 R310Q (recessively inherited disease mutant, rmGDAP1) (human) (UniProt Q8TB36).
T4 sequence: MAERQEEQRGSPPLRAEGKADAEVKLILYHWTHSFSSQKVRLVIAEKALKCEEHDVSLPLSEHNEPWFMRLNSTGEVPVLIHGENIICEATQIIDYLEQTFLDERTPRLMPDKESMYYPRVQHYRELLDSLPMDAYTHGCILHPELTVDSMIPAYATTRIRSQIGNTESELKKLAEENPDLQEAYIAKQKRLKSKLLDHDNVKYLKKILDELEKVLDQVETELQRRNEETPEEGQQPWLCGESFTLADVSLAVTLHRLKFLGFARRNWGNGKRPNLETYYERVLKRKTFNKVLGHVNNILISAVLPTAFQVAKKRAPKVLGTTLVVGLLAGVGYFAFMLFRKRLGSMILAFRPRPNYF
The description is as above.

Experiment [5] has as its target T5, human GDAP1 Q218E (dominantly inherited disease mutant, dmGDAP1) (human) (UniProt Q8TB36).
T5 sequence: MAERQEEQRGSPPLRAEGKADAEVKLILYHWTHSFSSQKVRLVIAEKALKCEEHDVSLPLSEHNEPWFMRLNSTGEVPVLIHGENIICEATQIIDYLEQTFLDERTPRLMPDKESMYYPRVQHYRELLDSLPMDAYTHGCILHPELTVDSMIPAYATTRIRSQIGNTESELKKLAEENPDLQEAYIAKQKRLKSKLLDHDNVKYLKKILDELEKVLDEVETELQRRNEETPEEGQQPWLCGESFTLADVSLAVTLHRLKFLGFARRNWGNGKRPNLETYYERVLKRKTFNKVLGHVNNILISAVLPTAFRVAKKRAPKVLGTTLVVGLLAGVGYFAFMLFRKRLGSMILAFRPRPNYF
The description is as above.

The target in experiment [6] is T6, mouse Gdap1, full-length, untagged (mouse) (UniProt O88741).
T6 sequence: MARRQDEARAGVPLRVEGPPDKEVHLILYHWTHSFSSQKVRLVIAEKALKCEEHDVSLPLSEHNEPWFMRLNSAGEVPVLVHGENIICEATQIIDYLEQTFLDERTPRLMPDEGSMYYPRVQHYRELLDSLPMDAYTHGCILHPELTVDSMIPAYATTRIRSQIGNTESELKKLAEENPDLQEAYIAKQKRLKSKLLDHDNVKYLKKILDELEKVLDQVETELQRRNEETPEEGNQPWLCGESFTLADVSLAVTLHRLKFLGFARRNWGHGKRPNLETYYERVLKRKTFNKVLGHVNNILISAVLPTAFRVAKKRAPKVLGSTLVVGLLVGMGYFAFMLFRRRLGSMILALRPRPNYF
The experiment can be described thus: co-IP; human and mouse forms co-expressed in HEK-293T; IP with murine-specific Gdap1 antibody on Protein A-Sepharose; lysis buffer 50 mM Tris pH 7.5, 150 mM NaCl, 1 mM EDTA, 1% Triton X-100; immunoblot for the human form.

Experiment [7] has as its target T7, human GDAP1 T318X (truncation lacking the TMD) (human) (UniProt Q8TB36).
T7 sequence: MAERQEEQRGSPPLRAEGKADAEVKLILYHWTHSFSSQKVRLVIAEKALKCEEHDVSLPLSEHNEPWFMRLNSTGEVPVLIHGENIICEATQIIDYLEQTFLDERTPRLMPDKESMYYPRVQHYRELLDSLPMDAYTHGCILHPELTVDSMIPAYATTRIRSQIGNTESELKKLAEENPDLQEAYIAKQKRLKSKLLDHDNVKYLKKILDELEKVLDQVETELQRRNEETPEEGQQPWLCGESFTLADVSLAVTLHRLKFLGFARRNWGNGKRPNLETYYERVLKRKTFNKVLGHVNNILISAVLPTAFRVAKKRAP
The experiment can be described thus: co-IP; human and mouse forms co-expressed in HEK-293T; IP with human-specific anti-GDAP1 serum on Protein A-Sepharose, 2 h; lysis buffer 50 mM Tris pH 7.5, 150 mM NaCl, 1 mM EDTA, 1% Triton X-100; immunoblot for the mouse form.

B1: mouse Gdap1, full-length, untagged (protein, UniProt O88741 1-358)
chain: MARRQDEARAGVPLRVEGPPDKEVHLILYHWTHSFSSQKVRLVIAEKALKCEEHDVSLPLSEHNEPWFMRLNSAGEVPVLVHGENIICEATQIIDYLEQTFLDERTPRLMPDEGSMYYPRVQHYRELLDSLPMDAYTHGCILHPELTVDSMIPAYATTRIRSQIGNTESELKKLAEENPDLQEAYIAKQKRLKSKLLDHDNVKYLKKILDELEKVLDQVETELQRRNEETPEEGNQPWLCGESFTLADVSLAVTLHRLKFLGFARRNWGHGKRPNLETYYERVLKRKTFNKVLGHVNNILISAVLPTAFRVAKKRAPKVLGSTLVVGLLVGMGYFAFMLFRRRLGSMILALRPRPNYF
B1: the binding result in experiment [1] was “binds”.

B2: mouse Gdap1 R120W (mouse isoform corresponding to the human disease mutant) (protein, UniProt O88741 1-358)
chain: MARRQDEARAGVPLRVEGPPDKEVHLILYHWTHSFSSQKVRLVIAEKALKCEEHDVSLPLSEHNEPWFMRLNSAGEVPVLVHGENIICEATQIIDYLEQTFLDERTPRLMPDEGSMYYPWVQHYRELLDSLPMDAYTHGCILHPELTVDSMIPAYATTRIRSQIGNTESELKKLAEENPDLQEAYIAKQKRLKSKLLDHDNVKYLKKILDELEKVLDQVETELQRRNEETPEEGNQPWLCGESFTLADVSLAVTLHRLKFLGFARRNWGHGKRPNLETYYERVLKRKTFNKVLGHVNNILISAVLPTAFRVAKKRAPKVLGSTLVVGLLVGMGYFAFMLFRRRLGSMILALRPRPNYF
With B2, the binding result in experiment [2] is “binds”.

B3: mouse Gdap1 R120Q (mouse isoform corresponding to the human disease mutant) (protein, UniProt O88741 1-358)
chain: MARRQDEARAGVPLRVEGPPDKEVHLILYHWTHSFSSQKVRLVIAEKALKCEEHDVSLPLSEHNEPWFMRLNSAGEVPVLVHGENIICEATQIIDYLEQTFLDERTPRLMPDEGSMYYPQVQHYRELLDSLPMDAYTHGCILHPELTVDSMIPAYATTRIRSQIGNTESELKKLAEENPDLQEAYIAKQKRLKSKLLDHDNVKYLKKILDELEKVLDQVETELQRRNEETPEEGNQPWLCGESFTLADVSLAVTLHRLKFLGFARRNWGHGKRPNLETYYERVLKRKTFNKVLGHVNNILISAVLPTAFRVAKKRAPKVLGSTLVVGLLVGMGYFAFMLFRRRLGSMILALRPRPNYF
For the molecule B3, the binding entry in experiment [3] was “binds”.

B4: mouse Gdap1 R310Q (mouse isoform corresponding to the human disease mutant) (protein, UniProt O88741 1-358)
chain: MARRQDEARAGVPLRVEGPPDKEVHLILYHWTHSFSSQKVRLVIAEKALKCEEHDVSLPLSEHNEPWFMRLNSAGEVPVLVHGENIICEATQIIDYLEQTFLDERTPRLMPDEGSMYYPRVQHYRELLDSLPMDAYTHGCILHPELTVDSMIPAYATTRIRSQIGNTESELKKLAEENPDLQEAYIAKQKRLKSKLLDHDNVKYLKKILDELEKVLDQVETELQRRNEETPEEGNQPWLCGESFTLADVSLAVTLHRLKFLGFARRNWGHGKRPNLETYYERVLKRKTFNKVLGHVNNILISAVLPTAFQVAKKRAPKVLGSTLVVGLLVGMGYFAFMLFRRRLGSMILALRPRPNYF
Consider B4, for which the binding entry in experiment [4] is given as “binds”.

B5: mouse Gdap1 Q218E (mouse isoform corresponding to the human disease mutant) (protein, UniProt O88741 1-358)
chain: MARRQDEARAGVPLRVEGPPDKEVHLILYHWTHSFSSQKVRLVIAEKALKCEEHDVSLPLSEHNEPWFMRLNSAGEVPVLVHGENIICEATQIIDYLEQTFLDERTPRLMPDEGSMYYPRVQHYRELLDSLPMDAYTHGCILHPELTVDSMIPAYATTRIRSQIGNTESELKKLAEENPDLQEAYIAKQKRLKSKLLDHDNVKYLKKILDELEKVLDEVETELQRRNEETPEEGNQPWLCGESFTLADVSLAVTLHRLKFLGFARRNWGHGKRPNLETYYERVLKRKTFNKVLGHVNNILISAVLPTAFRVAKKRAPKVLGSTLVVGLLVGMGYFAFMLFRRRLGSMILALRPRPNYF
Consider B5, for which, in experiment [5], the binding entry is on record as “binds”.

B6: human ganglioside-induced differentiation associated protein 1 (GDAP1), full-length, untagged (protein, UniProt Q8TB36 1-358)
chain: MAERQEEQRGSPPLRAEGKADAEVKLILYHWTHSFSSQKVRLVIAEKALKCEEHDVSLPLSEHNEPWFMRLNSTGEVPVLIHGENIICEATQIIDYLEQTFLDERTPRLMPDKESMYYPRVQHYRELLDSLPMDAYTHGCILHPELTVDSMIPAYATTRIRSQIGNTESELKKLAEENPDLQEAYIAKQKRLKSKLLDHDNVKYLKKILDELEKVLDQVETELQRRNEETPEEGQQPWLCGESFTLADVSLAVTLHRLKFLGFARRNWGNGKRPNLETYYERVLKRKTFNKVLGHVNNILISAVLPTAFRVAKKRAPKVLGTTLVVGLLAGVGYFAFMLFRKRLGSMILAFRPRPNYF
Regarding B6, in experiment [6], the binding entry was “binds”.

B7: mouse Gdap1 T318X (truncation lacking the TMD) (domain or fragment, UniProt O88741 1-317)
chain: MARRQDEARAGVPLRVEGPPDKEVHLILYHWTHSFSSQKVRLVIAEKALKCEEHDVSLPLSEHNEPWFMRLNSAGEVPVLVHGENIICEATQIIDYLEQTFLDERTPRLMPDEGSMYYPRVQHYRELLDSLPMDAYTHGCILHPELTVDSMIPAYATTRIRSQIGNTESELKKLAEENPDLQEAYIAKQKRLKSKLLDHDNVKYLKKILDELEKVLDQVETELQRRNEETPEEGNQPWLCGESFTLADVSLAVTLHRLKFLGFARRNWGHGKRPNLETYYERVLKRKTFNKVLGHVNNILISAVLPTAFRVAKKRAP
As to B7, the binding entry in experiment [7] is “binds”.
